Some of these results come from one statement about several compounds together. For some assays here: At least one structure is not confirmed: it was looked up by name or label, or the drawing left a doubt.
Tests used:
Peronospora parasitica = experiment: In vivo test on Peronospora parasitica (crucifer downy mildew); conditions: 500 ppm; cabbage plants sprayed 24 hours before contamination; grading 5 days after contamination
[1] = tested on: Mycosphaerella graminicola; experiment: In vivo test on Mycosphaerella graminicola (wheat leaf spot); conditions: 500 ppm; wheat plants sprayed 24 hours before contamination; grading 21 to 28 days after contamination
Pyrenophora teres = experiment: In vivo test on Pyrenophora teres (barley net blotch); conditions: 500 ppm; barley plants sprayed 24 hours before contamination; grading 12 days after contamination
Botrytis cinerea = experiment: In vivo test on Botrytis cinerea (grey mould); conditions: 500 ppm; gherkin plants sprayed 24 hours before contamination; grading 5/7 days after contamination
Alternaria brassicae = experiment: In vivo test on Alternaria brassicae (leaf spot of crucifers); conditions: 500 ppm; radish plants sprayed 24 hours before contamination; grading 6 to 7 days after contamination
Sphaerotheca fuliginea = experiment: In vivo test on Sphaerotheca fuliginea (cucurbits powdery mildew); conditions: 500 ppm; gherkin plants sprayed 24 hours before contamination; grading 12 days after contamination
Puccinia recondita = experiment: In vivo test on Puccinia recondita (brown rust); conditions: 500 ppm; wheat plants sprayed 24 hours before contamination; grading 10 days after contamination

SMILES | protection (good, at least 70%, or total) (Peronospora parasitica) | protection (good, at least 70%) (Pyrenophora teres) | further results
COc1ccc(Nc2nccc(-c3ccnc(NCCCO)c3)n2)cn1 [Compound 53] | at least 70% |  | 
c1cc(Nc2nccc(-c3ccnc(NC4CCCCC4)c3)n2)cc(NC2CCCCC2)n1 [Compound 15] | at least 70% |  | protection (good, at least 70%, or total), % of efficacy [1]: at least 70%
COc1ccc(Nc2nccc(-c3ccnc(NCC(C)O)c3)n2)cn1 (centres unmarked) [Compound 64] | at least 70% | at least 70% | 
COc1ccc(Nc2nccc(-c3ccnc(NCC(C)C)c3)n2)cn1 [Compound 46] |  | at least 70% | 
COc1ccc(Nc2nccc(-c3ccnc(NCC4CC4)c3)n2)cn1 [Compound 52] |  | at least 70% | protection (good, at least 70%, or total) (Botrytis cinerea): at least 70%
COc1ccc(Nc2nccc(-c3ccnc(NCCCN4CCCC4=O)c3)n2)cn1 [Compound 49] | at least 70% |  | 
CCC(C)CNc1cc(-c2ccnc(Nc3ccc(OC)nc3)n2)ccn1 (centres unmarked) [Compound 57] |  | at least 70% | good protection (at least 70%) (Alternaria brassicae): at least 70%
CCCOCCNc1cc(-c2ccnc(Nc3ccnc(Cl)c3)n2)ccn1 [Compound 42] |  |  | protection (good, at least 70%, or total) (Botrytis cinerea): at least 70%
c1cc(Nc2nccc(-c3ccnc(NC4CCCC4)c3)n2)cc(NC2CCCC2)n1 [Compound 22] | at least 70% |  | 
CCC(C)Nc1cc(-c2ccnc(Nc3ccc(OC)nc3)n2)ccn1 (centres unmarked) [Compound 39] |  | at least 70% | protection (good, at least 70%, or total), % of efficacy (Sphaerotheca fuliginea): at least 70%; protection (good, at least 70%, or total) (Botrytis cinerea): at least 70%; protection (good, at least 70%, or total), % of efficacy [1]: at least 70%
C=C(C)CNc1cc(-c2ccnc(Nc3ccc(OC)nc3)n2)ccn1 [Compound 62] |  | at least 70% | 
COc1ccc(Nc2nccc(-c3ccnc(NCCC(C)C)c3)n2)cn1 [Compound 68] |  | at least 70% | 
COc1ccc(Nc2nccc(-c3ccnc(NC4COC4)c3)n2)cn1 [Compound 36] |  | at least 70% | 
CCCCNc1cc(-c2ccnc(Nc3ccc(OC)nc3)n2)ccn1 [Compound 69] |  | at least 70% | protection (good, at least 70%, or total) (Botrytis cinerea): at least 70%
COc1ccc(Nc2nccc(-c3ccnc(NCCOC(C)C)c3)n2)cn1 [Compound 66] |  | at least 70% | protection (good, at least 70%, or total), % of efficacy [1]: at least 70%
CCC(COC)Nc1cc(Nc2nccc(-c3ccnc(NC(CC)COC)c3)n2)ccn1 (centres unmarked) [Compound 34] |  |  | protection (good, at least 70%, or total), % of efficacy [1]: at least 70%
CCC(COC)Nc1cc(-c2ccnc(Nc3ccnc(C(F)(F)F)c3)n2)ccn1 (centres unmarked) [Compound 45] |  | at least 70% | 
CCC(COC)Nc1cc(-c2ccnc(Nc3ccnc(Cl)c3)n2)ccn1 (centres unmarked) [Compound 9, N-(2-chloropyridin-4-yl)-4-(2-{[1-(methoxymethyl)propyl]amino}pyridin-4-yl)pyrimidin-2-amine] | at least 70% | at least 70% | protection (good, at least 70%, or total), % of efficacy (Sphaerotheca fuliginea): at least 70%; protection (good, at least 70%, or total) (Botrytis cinerea): at least 70%; good protection (at least 70%) (Alternaria brassicae): at least 70%; protection (good, at least 70%, or total), % of efficacy [1]: at least 70%; protection (good, at least 70%, or total) (Puccinia recondita): at least 70%
c1cc(Nc2nccc(-c3ccnc(NC4CCC4)c3)n2)cc(NC2CCC2)n1 [Compound 19] | at least 70% |  | 
CC(C)C(C)Nc1cc(Nc2nccc(-c3ccnc(NC(C)C(C)C)c3)n2)ccn1 (centres unmarked) [Compound 18] | at least 70% |  | 
CCC(C)Nc1cc(Nc2nccc(-c3ccnc(NC(C)CC)c3)n2)ccn1 (centres unmarked) [Compound 23] | at least 70% |  | 
CCC(O)CNc1cc(-c2ccnc(Nc3ccc(OC)nc3)n2)ccn1 (centres unmarked) [Compound 65] | at least 70% | at least 70% | 

— patent US8273759B2, “Fungicide heterocyclyl-pyrimidinyl-amino derivatives” (Bayer Cropscience AG, priority 2007, dated 2012)
